From publication PMC7588595, “Small-molecule active pharmaceutical ingredients of approved cancer therapeutics inhibit human aspartate/asparagine-β-hydroxylase” (Bioorganic & Medicinal Chemistry, 2020)

Target: T1, human AspH (His6-AspH315–758) (Homo sapiens, UniProt Q12797)
T1 construct: N-Terminally His6-tagged human AspH315–758 (His6-AspH315–758) was produced in Escherichia coli BL21 (DE3) cells; made in house; host or cells: Escherichia coli BL21 (DE3), pET-28a(+) vector
T1 sequence (Q12797 315-758): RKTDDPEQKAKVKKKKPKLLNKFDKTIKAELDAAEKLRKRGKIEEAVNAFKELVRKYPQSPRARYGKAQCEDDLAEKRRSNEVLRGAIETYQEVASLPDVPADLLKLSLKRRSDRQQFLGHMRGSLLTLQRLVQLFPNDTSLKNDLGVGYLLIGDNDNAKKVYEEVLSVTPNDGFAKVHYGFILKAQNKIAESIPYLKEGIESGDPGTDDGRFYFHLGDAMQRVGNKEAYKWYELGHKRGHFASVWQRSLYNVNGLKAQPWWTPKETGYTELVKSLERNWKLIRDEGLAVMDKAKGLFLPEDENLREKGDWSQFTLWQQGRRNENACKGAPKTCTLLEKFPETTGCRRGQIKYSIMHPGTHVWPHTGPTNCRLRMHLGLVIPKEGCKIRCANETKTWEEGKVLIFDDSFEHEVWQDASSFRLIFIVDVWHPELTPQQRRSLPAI
Assay: SPE-MS AspH inhibition assay (hFX-CP101-119 substrate hydroxylation)
Assay type: biochemical

CC[C@H](CO)Nc1nc(NCc2ccccc2)c2ncn(C(C)C)c2n1 [Roscovitine_Selicilib]
Plate 1 (% inhibition): 2.35%
Plate 1-duplicate (% inhibition): 3.78%
